Like-named read-outs stand apart in the source and are kept apart here. Results are given in words; binding and its absence hold for the method and conditions named. Binding seen in cells or lysates may run through a third protein. Binding can be weak; no strength is given. Each block holds one molecule with its values, some of them ahead of it.
Legend:
[1] = target: CD44 (human (endogenous in IPF MPCs)) (UniProt P16070); assay: co-IP; nuclear fractions (NE-PER) of CD44hi IPF MPCs treated with IL-8 or vehicle; precleared with protein A/G beads, nuclear CD44 immunoprecipitated 2 hours at 4°C; Western blot for the partner; isotype antibody as control
[2] = target: CD44 (human (endogenous in IPF MPCs)) (UniProt P16070); assay: as above; remark: listed apart in the source

By UniProt entry, the sequences of proteins in these tests, tags left out. Where a name states a change or a piece, a line headed by the entry shows the natural chain unless it says otherwise.
UniProt P16070: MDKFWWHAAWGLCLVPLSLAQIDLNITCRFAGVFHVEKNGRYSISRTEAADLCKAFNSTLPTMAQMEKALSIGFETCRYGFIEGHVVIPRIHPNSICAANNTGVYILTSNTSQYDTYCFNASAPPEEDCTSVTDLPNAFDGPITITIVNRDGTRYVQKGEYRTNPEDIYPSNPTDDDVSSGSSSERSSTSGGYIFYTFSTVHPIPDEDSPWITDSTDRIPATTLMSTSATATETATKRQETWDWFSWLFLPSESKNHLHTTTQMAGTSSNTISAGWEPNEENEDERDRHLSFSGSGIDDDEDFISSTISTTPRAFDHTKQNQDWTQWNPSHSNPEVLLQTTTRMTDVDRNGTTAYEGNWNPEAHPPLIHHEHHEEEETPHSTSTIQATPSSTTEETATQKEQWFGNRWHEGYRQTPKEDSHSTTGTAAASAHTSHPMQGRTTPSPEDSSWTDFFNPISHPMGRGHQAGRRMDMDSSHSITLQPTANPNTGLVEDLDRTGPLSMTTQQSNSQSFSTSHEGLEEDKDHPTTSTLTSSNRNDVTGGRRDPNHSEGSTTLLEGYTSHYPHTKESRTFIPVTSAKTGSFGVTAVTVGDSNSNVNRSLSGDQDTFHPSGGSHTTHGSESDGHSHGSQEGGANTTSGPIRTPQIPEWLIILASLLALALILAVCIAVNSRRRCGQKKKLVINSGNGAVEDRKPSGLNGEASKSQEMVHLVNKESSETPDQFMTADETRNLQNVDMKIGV
UniProt P51532: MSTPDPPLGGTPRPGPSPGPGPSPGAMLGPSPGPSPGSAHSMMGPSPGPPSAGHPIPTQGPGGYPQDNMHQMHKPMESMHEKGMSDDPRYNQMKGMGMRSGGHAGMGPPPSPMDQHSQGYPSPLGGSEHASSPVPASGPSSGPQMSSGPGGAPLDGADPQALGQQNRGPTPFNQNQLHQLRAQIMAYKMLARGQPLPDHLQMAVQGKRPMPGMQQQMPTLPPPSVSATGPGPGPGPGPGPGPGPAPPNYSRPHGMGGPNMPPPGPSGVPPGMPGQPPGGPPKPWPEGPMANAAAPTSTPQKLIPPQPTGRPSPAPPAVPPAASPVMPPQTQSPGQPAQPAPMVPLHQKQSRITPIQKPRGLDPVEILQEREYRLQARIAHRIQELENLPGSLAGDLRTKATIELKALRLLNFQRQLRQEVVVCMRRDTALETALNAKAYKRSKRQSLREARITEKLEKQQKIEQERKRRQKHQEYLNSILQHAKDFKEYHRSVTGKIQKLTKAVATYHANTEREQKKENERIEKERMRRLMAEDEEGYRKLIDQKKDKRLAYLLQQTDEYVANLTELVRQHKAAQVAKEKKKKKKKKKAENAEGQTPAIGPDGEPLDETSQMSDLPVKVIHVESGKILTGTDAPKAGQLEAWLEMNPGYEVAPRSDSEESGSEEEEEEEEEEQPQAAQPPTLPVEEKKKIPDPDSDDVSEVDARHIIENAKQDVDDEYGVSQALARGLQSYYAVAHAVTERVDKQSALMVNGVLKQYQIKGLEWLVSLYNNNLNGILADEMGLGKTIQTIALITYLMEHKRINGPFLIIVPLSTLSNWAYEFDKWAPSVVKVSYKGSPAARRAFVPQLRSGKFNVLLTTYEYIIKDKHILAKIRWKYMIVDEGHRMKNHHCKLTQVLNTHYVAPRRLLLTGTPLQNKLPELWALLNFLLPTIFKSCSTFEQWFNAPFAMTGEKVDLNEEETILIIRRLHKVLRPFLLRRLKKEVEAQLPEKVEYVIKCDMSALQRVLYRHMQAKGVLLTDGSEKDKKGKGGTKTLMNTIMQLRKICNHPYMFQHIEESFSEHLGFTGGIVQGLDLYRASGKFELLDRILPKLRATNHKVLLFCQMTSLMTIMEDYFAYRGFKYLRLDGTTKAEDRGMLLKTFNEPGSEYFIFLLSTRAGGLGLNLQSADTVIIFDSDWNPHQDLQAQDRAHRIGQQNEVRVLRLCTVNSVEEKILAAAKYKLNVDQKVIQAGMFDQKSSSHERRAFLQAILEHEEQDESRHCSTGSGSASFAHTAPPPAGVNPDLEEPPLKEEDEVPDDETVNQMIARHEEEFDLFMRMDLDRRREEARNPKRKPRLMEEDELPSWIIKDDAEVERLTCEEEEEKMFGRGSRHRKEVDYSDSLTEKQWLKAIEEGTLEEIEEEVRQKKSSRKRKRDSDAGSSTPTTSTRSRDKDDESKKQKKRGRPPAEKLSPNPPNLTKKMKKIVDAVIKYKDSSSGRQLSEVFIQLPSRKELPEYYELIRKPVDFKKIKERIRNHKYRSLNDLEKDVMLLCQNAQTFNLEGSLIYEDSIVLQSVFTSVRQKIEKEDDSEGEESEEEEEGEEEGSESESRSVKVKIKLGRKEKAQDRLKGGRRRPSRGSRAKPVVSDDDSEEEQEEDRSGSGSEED

binding [1]: binds
Molecule: Brahma-related gene 1 (Brg1) (from UniProt P51532 1-1647)

binding [2]: binds
B1: zinc finger E-box binding homeobox 1 (Zeb1) (protein, UniProt P37275 1-1124)
chain: MADGPRCKRRKQANPRRNNVTNYNTVVETNSDSDDEDKLHIVEEESVTDAADCEGVPEDDLPTDQTVLPGRSSEREGNAKNCWEDDRKEGQEILGPEAQADEAGCTVKDDECESDAENEQNHDPNVEEFLQQQDTAVIFPEAPEEDQRQGTPEASGHDENGTPDAFSQLLTCPYCDRGYKRFTSLKEHIKYRHEKNEDNFSCSLCSYTFAYRTQLERHMTSHKSGRDQRHVTQSGCNRKFKCTECGKAFKYKHHLKEHLRIHSGEKPYECPNCKKRFSHSGSYSSHISSKKCISLIPVNGRPRTGLKTSQCSSPSLSASPGSPTRPQIRQKIENKPLQEQLSVNQIKTEPVDYEFKPIVVASGINCSTPLQNGVFTGGGPLQATSSPQGMVQAVVLPTVGLVSPISINLSDIQNVLKVAVDGNVIRQVLENNQANLASKEQETINASPIQQGGHSVISAISLPLVDQDGTTKIIINYSLEQPSQLQVVPQNLKKENPVATNSCKSEKLPEDLTVKSEKDKSFEGGVNDSTCLLCDDCPGDINALPELKHYDLKQPTQPPPLPAAEAEKPESSVSSATGDGNLSPSQPPLKNLLSLLKAYYALNAQPSAEELSKIADSVNLPLDVVKKWFEKMQAGQISVQSSEPSSPEPGKVNIPAKNNDQPQSANANEPQDSTVNLQSPLKMTNSPVLPVGSTTNGSRSSTPSPSPLNLSSSRNTQGYLYTAEGAQEEPQVEPLDLSLPKQQGELLERSTITSVYQNSVYSVQEEPLNLSCAKKEPQKDSCVTDSEPVVNVIPPSANPINIAIPTVTAQLPTIVAIADQNSVPCLRALAANKQTILIPQVAYTYSTTVSPAVQEPPLKVIQPNGNQDERQDTSSEGVSNVEDQNDSDSTPPKKKMRKTENGMYACDLCDKIFQKSSSLLRHKYEHTGKRPHECGICKKAFKHKHHLIEHMRLHSGEKPYQCDKCGKRFSHSGSYSQHMNHRYSYCKREAEERDSTEQEEAGPEILSNEHVGARASPSQGDSDERESLTREEDEDSEKEEEEEDKEMEELQEEKECEKPQGDEEEEEEEEEVEEEEVEEAENEGEEAKTEGLMKDDRAESQASSLGQKVGESSEQVSEEKTNEA

From article PMC8262361
